Laboratory results as given in patent US6228373A, “Peptides with immunomodulatory effects” (priority 1995, dated 2001).
Some entries share one result that the patent states for a list of compounds. Positions of bridges follow the written chain, without caps; N, C: chain ends. Residues, ends and D or L forms follow the SMILES beside them. No end group written: not given here.

Tested on: Balb/c mice sensitized with OXA
Assay: Delayed type hypersensitivity (DTH) test, oral feeding
Type: in vivo
Conditions: oral once daily Day 0 to Day 6; 0.0003-3.0 μmol/kg, in at least one of the dosages tested; ear thickness 24 or 48 hours after OXA challenge

Compound | immunomodulatory response in the DTH Test (change in ear thickness compared to control)
PVCCIG (cysteine pairing not given here) [Peptide 11] | give rise to an immunomodulatory
Val-Cys-Ile-Cys-Gln (VCICQ; printed: Val-Cys-Ile-Cys-Gln) [Peptide 13] | give rise to an immunomodulatory
Asp-Cys-Ile-Cys-Gln (DCICQ; printed: Asp-Cys-Ile-Cys-Gln) [Peptide 24] | give rise to an immunomodulatory
N=C(N)NCCC[C@@H]1NC(=O)[C@@H](NC(=O)[C@@H](N)CCCCN)CSSC[C@@H](C(=O)N[C@@H](CCCCN)C(=O)O)NC1=O [Peptide 18] (H-KCRCK-OH; disulfide 2-4) | give rise to an immunomodulatory
